Results deposited as PubChem BioAssay AID743454 (Peter MacCallum Cancer Centre, 2014).
Purpose: 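Genes whose loss kills vorinostat-resistant colon cancer cells under vorinostat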 (primary screen). System: human HCT116-VR colon cancer cells, selected for vorinostat resistance. Reagents: siRNA pool against human genes, 40 nM siRNA pool. Duration: vorinostat for 24 h, read-out about 72 h after transfection. Conditions: vorinostat at 2.5 µM final. Detection: 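Two measures, CellTiter-Fluor viability and luminescent caspase 3/7 activity, each as fold change against same-plate mock wells, mean of duplicates, then screen-wide robust z-score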. Reading the numbers: viability robust z-score: higher = more viable cells than screen typical; caspase robust z-score: higher = more caspase 3/7 activity than screen typical. Call rule: 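a knock-down is a hit when classed RV1 or RV2 for lowered viability, or CA1 or CA2 for caspase activation; those lethal without drug were dropped; hits were retested singly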.
The deposit covers about 18,000 reagents; shown is a part drawn at random. In the full data, 450 (2.5%) got an active call. 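Single biological run; no consistent viability z cut-off exists, so the class columns, not z-scores, define the calls.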 The numbers tell different reagents against one gene apart.

Gene | pool no. | viability hit class | caspase hit class | viability robust z-score | caspase robust z-score | outcome
TOP2B (GeneID 7155) | 1 | no change | no change | 0.52 | -0.5 | inactive
MCOLN3 (GeneID 55283) | 1 | no change | no change | -1.21 | 1.94 | inactive
UTP14C (GeneID 9724) | 1 | no change | no change | -0.52 | -0.05 | inactive
ANXA2 (GeneID 302) | 1 | no change | no change | 0.31 | 0.37 | inactive
SLITRK6 (GeneID 84189) | 1 | no change | no change | 0.8 | -0.79 | inactive
HEATR3 (GeneID 55027) | 1 | no change | no change | -1.05 | -0.56 | inactive
LMX1A (GeneID 4009) | 1 | no change | no change | 0.16 | 4.29 | inactive
FAM171B (GeneID 165215) | 1 | no change | no change | -0.2 | -0.54 | inactive
BHLHE22 (GeneID 27319) | 1 | no change | no change | 1.7 | -0.26 | inactive
HEBP2 (GeneID 23593) | 1 | no change | no change | 1.23 | -0.38 | inactive
RFC1 (GeneID 5981) | 1 | no change | no change | 0.62 | -0.44 | inactive
VEZT (GeneID 55591) | 1 | no change | no change | -0.55 | -0.32 | inactive
ALDOC (GeneID 230) | 1 | no change | no change | 0.33 | -1.24 | inactive
VWA7 (GeneID 80737) | 1 | no change | no change | 0.91 | -0.18 | inactive
ARFGEF3 (GeneID 57221) | 1 | no change | no change | -0.49 | -0.53 | inactive
HSD11B1L (GeneID 374875) | 1 | no change | no change | -0.47 | 0.88 | inactive
XYLB (GeneID 9942) | 1 | no change | no change | 1.58 | -0.68 | inactive
CCKAR (GeneID 886) | 1 | no change | no change | 0.7 | 1.38 | inactive
AMOT (GeneID 154796) | 1 | no change | no change | 0.22 | 0.05 | inactive
ISM2 (GeneID 145501) | 1 | no change | no change | -0.55 | 0.52 | inactive
SZT2 (GeneID 23334) | 1 | no change | no change | 2.34 | -0.27 | inactive
SZT2 (GeneID 23334) | 2 | no change | no change | -0.78 | 0.32 | inactive
PAQR6 (GeneID 79957) | 1 | no change | no change | 0.48 | -0.1 | inactive
ATP2C1 (GeneID 27032) | 1 | no change | no change | -0.4 | 2.43 | inactive
USP6 (GeneID 9098) | 1 | no change | no change | -0.07 | 1.52 | inactive
PDCL (GeneID 5082) | 1 | no change | no change | -0.48 | 2 | inactive
TSPYL6 (GeneID 388951) | 1 | no change | no change | -0.56 | 2.14 | inactive
NAP1L5 (GeneID 266812) | 1 | no change | no change | -1.21 | -0.83 | inactive
ACTR3B (GeneID 57180) | 1 | no change | no change | 0.44 | -0.04 | inactive
RAP2B (GeneID 5912) | 1 | no change | no change | -0.88 | 0.44 | inactive
RIOK1 (GeneID 83732) | 1 | no change | no change | -1.63 | 1.12 | inactive
ADAM2 (GeneID 2515) | 1 | no change | no change | 0.85 | -0.15 | inactive
RGPD7 (retired record) (GeneID 652919) | 1 | no change | no change | 1.25 | 0.44 | inactive
GML (GeneID 2765) | 1 | no change | no change | -0.18 | 0.14 | inactive
CTDSP1 (GeneID 58190) | 1 | no change | no change | -0.26 | 3.65 | inactive
RNASE3 (GeneID 6037) | 1 | no change | no change | -0.26 | 0.84 | inactive
RYR2 (GeneID 6262) | 1 | no change | no change | -1.7 | 0.26 | inactive
MICOS10 (GeneID 440574) | 1 | no change | no change | -1.38 | -0.67 | inactive
UBL5 (GeneID 59286) | 1 | no change | no change | -2.9 | 0.1 | inactive
CPO (GeneID 130749) | 1 | no change | no change | -1.11 | 3.87 | inactive
LPCAT2 (GeneID 54947) | 1 | no change | no change | 1.09 | -1.03 | inactive
ZNF827 (GeneID 152485) | 1 | no change | no change | -0.26 | -0.69 | inactive
TRIM43 (GeneID 129868) | 1 | no change | no change | 0.82 | -0.14 | inactive
VCX3B (GeneID 425054) | 1 | no change | no change | -0.4 | 0.79 | inactive
WASF3 (GeneID 10810) | 1 | no change | no change | 2.06 | 0.1 | inactive
FBXO33 (GeneID 254170) | 1 | no change | no change | -0.08 | -0.43 | inactive
NELFE (GeneID 7936) | 1 | no change | no change | 0.58 | -0.6 | inactive
ADH1C (GeneID 126) | 1 | no change | no change | 0.48 | -0.53 | inactive
SPDYE1 (GeneID 285955) | 1 | no change | no change | -0.32 | -0.22 | inactive
LAIR1 (GeneID 3903) | 1 | no change | no change | 0.57 | -0.53 | inactive
ADAMTS18 (GeneID 170692) | 1 | no change | no change | 0.22 | -0.73 | inactive
S100Z (GeneID 170591) | 1 | no change | no change | -0.05 | -0.23 | inactive
TBC1D1 (GeneID 23216) | 1 | no change | no change | 0.64 | -0.52 | inactive
KATNBL1 (GeneID 79768) | 1 | no change | no change | -0.04 | -0.08 | inactive
WFDC6 (GeneID 140870) | 1 | no change | no change | -2.55 | 1.14 | inactive
MPV17 (GeneID 4358) | 1 | no change | no change | -1.79 | 0.94 | inactive
SLC25A25 (GeneID 114789) | 1 | no change | no change | 1.68 | -0.55 | inactive

Just “viability hit class”, for 10 of the entries above:
GML (GeneID 2765): no change
CTDSP1 (GeneID 58190): no change
RNASE3 (GeneID 6037): no change
RYR2 (GeneID 6262): no change
MICOS10 (GeneID 440574): no change
UBL5 (GeneID 59286): no change
CPO (GeneID 130749): no change
LPCAT2 (GeneID 54947): no change
ZNF827 (GeneID 152485): no change
TRIM43 (GeneID 129868): no change
